Assay results taken from PMC12373823.
These are yes or no findings as the source states them, for the method shown. In cells and extracts the contact can be indirect. Some entries that bind do so weakly or less than the wild type.

Sequences of proteins named here, by UniProt entry; tags and fusion partners are left off.
UniProt O15260: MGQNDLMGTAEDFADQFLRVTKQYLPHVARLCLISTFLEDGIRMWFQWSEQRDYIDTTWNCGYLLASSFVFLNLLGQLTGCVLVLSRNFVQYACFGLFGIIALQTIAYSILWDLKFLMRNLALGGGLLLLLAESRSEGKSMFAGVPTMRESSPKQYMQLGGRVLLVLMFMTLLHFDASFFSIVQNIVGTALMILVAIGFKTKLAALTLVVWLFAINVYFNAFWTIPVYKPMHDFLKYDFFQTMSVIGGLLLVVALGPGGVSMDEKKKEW
UniProt Q86WV6: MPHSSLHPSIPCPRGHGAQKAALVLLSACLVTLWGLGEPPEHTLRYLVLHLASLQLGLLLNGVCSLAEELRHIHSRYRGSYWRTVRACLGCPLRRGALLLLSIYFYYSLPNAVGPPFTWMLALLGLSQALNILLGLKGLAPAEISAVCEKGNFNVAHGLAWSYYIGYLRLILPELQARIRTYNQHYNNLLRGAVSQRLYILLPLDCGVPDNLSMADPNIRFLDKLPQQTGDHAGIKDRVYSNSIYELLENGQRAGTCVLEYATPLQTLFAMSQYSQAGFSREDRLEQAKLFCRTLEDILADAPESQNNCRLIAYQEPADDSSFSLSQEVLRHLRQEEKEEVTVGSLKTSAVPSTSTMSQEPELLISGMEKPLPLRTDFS

How the values were obtained:
SURF4 [1] = biological target: SURF4 (UniProt O15260); experiment: co-IP; lysate of HEK 293T cells; magnetic beads with antibody, 4 °C overnight, three washes with IP wash buffer (NP-40, NaCl, Tris-HCl, SDS); which protein was precipitated is not told
SURF4 [2] = biological target: SURF4 (UniProt O15260); experiment: co-IP; lysate of JE-6 T cells; magnetic beads with antibody, 4 °C overnight, three washes with IP wash buffer (NP-40, NaCl, Tris-HCl, SDS); which protein was precipitated is not told

binding (SURF4 [1]): binds
binding (SURF4 [2]): binds
Substance: stimulator of interferon genes (STING) (from UniProt Q86WV6 1-379)
